Results are given in words; binding and its absence hold for the method and conditions named. For part of these data: A result given as binding can be weak or reduced; the word gives no strength. For part of these data: Tags and fused reporters may be left off the sequences shown. For part of these data: In cells and extracts the contact can be indirect.
T1: T7-ORCA (full-length) (human) (UniProt Q9UFC0)
T1 sequence: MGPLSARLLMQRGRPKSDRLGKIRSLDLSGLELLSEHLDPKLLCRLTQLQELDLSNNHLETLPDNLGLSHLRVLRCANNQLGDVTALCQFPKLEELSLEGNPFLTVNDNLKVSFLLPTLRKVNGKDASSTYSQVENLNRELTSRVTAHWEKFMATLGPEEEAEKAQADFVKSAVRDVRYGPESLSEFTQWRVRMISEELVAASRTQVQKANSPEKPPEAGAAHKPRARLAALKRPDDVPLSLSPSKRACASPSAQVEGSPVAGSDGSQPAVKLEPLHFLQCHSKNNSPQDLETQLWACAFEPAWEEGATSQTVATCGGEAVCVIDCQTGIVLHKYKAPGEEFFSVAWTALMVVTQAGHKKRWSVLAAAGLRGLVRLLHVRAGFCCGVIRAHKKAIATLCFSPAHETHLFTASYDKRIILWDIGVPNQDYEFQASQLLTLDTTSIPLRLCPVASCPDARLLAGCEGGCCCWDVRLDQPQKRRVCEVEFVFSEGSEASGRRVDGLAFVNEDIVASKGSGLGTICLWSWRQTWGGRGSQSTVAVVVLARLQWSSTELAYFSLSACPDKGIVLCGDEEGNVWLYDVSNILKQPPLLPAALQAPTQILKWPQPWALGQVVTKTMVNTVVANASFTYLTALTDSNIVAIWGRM

Amino acid sequences for entries named in this document (tags omitted). A change or cut given only in a name is not applied to a line headed by its entry.
UniProt Q9Z148: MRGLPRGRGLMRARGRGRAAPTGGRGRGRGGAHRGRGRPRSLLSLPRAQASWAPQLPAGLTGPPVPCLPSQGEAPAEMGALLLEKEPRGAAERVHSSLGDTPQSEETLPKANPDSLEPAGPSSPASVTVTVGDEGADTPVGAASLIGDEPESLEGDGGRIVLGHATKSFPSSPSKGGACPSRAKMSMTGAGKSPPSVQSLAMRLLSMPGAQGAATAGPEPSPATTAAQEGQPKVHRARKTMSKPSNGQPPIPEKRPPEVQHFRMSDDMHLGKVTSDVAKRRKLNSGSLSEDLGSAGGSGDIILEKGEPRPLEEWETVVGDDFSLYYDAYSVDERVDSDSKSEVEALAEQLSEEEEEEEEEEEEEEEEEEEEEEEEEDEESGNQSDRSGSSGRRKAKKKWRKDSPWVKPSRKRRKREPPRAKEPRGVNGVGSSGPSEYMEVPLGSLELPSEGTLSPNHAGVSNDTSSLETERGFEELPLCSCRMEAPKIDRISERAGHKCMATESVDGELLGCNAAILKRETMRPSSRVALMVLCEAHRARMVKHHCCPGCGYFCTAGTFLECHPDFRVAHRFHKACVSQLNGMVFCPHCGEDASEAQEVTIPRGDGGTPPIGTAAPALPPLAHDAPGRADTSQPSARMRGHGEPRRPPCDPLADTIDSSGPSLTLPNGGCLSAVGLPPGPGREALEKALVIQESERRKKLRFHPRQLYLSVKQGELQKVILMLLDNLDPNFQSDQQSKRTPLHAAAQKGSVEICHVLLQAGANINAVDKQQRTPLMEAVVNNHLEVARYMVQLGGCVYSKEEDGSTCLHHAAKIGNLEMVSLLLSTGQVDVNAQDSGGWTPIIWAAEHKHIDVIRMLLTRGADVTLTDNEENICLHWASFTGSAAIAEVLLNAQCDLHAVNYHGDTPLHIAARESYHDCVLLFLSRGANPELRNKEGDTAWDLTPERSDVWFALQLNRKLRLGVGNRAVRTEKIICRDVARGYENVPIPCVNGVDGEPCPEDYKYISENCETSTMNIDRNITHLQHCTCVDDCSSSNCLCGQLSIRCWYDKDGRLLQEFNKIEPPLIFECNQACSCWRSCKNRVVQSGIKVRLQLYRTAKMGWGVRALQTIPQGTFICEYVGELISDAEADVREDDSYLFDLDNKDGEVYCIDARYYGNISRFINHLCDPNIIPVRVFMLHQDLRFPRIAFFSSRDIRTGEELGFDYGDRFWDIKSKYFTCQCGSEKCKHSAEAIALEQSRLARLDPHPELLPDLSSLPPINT
UniProt Q96KQ7: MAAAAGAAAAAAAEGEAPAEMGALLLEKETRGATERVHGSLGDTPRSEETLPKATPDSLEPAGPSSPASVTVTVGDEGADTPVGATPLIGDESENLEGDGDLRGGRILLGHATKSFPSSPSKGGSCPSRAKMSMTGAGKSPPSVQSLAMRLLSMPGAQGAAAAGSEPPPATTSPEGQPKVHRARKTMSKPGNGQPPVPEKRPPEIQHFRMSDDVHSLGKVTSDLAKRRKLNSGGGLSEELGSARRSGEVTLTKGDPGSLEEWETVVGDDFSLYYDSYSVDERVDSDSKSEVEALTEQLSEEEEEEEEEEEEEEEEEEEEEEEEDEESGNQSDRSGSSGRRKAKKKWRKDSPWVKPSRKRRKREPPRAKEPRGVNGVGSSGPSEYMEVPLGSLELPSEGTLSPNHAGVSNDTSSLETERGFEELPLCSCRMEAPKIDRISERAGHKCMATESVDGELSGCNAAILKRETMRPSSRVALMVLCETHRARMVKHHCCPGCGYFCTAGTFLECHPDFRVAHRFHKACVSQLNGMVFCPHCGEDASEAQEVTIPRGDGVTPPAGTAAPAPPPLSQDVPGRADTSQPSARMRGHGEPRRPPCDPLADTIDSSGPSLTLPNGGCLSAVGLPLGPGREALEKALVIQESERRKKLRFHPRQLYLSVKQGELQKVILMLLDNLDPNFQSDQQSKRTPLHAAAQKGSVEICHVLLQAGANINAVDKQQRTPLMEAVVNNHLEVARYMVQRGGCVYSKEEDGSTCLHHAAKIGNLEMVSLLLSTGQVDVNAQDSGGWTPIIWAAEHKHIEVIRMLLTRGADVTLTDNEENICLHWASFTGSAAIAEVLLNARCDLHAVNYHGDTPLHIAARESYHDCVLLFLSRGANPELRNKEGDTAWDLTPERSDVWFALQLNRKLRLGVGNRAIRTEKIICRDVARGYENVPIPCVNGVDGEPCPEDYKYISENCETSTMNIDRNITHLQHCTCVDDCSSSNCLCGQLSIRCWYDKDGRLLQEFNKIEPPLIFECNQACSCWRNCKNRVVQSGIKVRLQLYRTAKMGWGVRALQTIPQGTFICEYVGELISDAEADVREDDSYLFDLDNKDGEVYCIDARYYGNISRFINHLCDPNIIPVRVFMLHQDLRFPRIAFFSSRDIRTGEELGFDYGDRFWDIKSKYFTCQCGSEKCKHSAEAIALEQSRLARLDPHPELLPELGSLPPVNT


What was measured:
[1] = biological target: T1, T7-ORCA (full-length) (human); test: co-IP; transient co-transfection in U2OS; IP buffer 50 mM Tris pH 7.4, 150 mM NaCl, 10% glycerol, 0.1% NP-40, 1 mM DTT; antibody-conjugated agarose (ORCA, T7 or HA antibody) overnight; immunoblot; for G9a-Suv39H1 also in control and ORCA siRNA cells
[2] = biological target: YFP-LacI-G9a (full length, wild type) (not stated (human or mouse cDNA cloned)); test: LacI tethering to a lac operator array (CLTon locus), recruitment seen by fluorescence microscopy; U2OS 2-6-3 CLTon cells, condensed heterochromatic locus (no doxycycline); LacI fusion tethered, fluorescent partner scored at the locus
[3] = biological target: YFP-LacI-G9a-ΔSET (mouse) (UniProt Q9Z148); test: as above

Row | binding [1] | binding [2] | binding [3] | Molecule
1 | binds | – | – | GFP-G9a-ΔSET (from UniProt Q96KQ7) (enzyme)
2 | – | binds | no binding | CFP-ORCA (protein, UniProt Q9UFC0 1-647) MGPLSARLLMQRGRPKSDRLGKIRSLDLSGLELLSEHLDPKLLCRLTQLQELDLSNNHLETLPDNLGLSHLRVLRCANNQLGDVTALCQFPKLEELSLEGNPFLTVNDNLKVSFLLPTLRKVNGKDASSTYSQVENLNRELTSRVTAHWEKFMATLGPEEEAEKAQADFVKSAVRDVRYGPESLSEFTQWRVRMISEELVAASRTQVQKANSPEKPPEAGAAHKPRARLAALKRPDDVPLSLSPSKRACASPSAQVEGSPVAGSDGSQPAVKLEPLHFLQCHSKNNSPQDLETQLWACAFEPAWEEGATSQTVATCGGEAVCVIDCQTGIVLHKYKAPGEEFFSVAWTALMVVTQAGHKKRWSVLAAAGLRGLVRLLHVRAGFCCGVIRAHKKAIATLCFSPAHETHLFTASYDKRIILWDIGVPNQDYEFQASQLLTLDTTSIPLRLCPVASCPDARLLAGCEGGCCCWDVRLDQPQKRRVCEVEFVFSEGSEASGRRVDGLAFVNEDIVASKGSGLGTICLWSWRQTWGGRGSQSTVAVVVLARLQWSSTELAYFSLSACPDKGIVLCGDEEGNVWLYDVSNILKQPPLLPAALQAPTQILKWPQPWALGQVVTKTMVNTVVANASFTYLTALTDSNIVAIWGRM

From PMC4442312 (eLife, 2015)
